Measurements as given in publication PMC7804203, “Targeting adaptor protein SLP76 of RAGE as a therapeutic approach for lethal sepsis” (Nature Communications, 2021).
No constants are given. Whether binding was seen depends on the method and setting. In cells and extracts the contact can be indirect. Some results given as binding are weak or reduced against the parent protein; the word gives no strength. For some assays here: Tags and fused reporters may be left off the sequences shown.

Protein sequences, listed by entry. Tags and fused reporters are not part of them. Residues count along the entry.
UniProt Q15109, residues 23-404: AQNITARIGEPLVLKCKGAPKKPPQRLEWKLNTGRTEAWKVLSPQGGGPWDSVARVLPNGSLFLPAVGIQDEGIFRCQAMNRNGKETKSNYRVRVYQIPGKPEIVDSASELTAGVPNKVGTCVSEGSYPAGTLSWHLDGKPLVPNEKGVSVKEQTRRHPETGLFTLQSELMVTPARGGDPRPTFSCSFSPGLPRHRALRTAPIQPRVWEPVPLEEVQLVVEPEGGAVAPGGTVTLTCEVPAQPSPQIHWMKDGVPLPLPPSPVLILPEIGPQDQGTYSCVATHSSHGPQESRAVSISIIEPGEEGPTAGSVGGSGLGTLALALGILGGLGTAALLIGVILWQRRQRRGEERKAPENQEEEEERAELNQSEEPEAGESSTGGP
UniProt Q62151, residues 23-402: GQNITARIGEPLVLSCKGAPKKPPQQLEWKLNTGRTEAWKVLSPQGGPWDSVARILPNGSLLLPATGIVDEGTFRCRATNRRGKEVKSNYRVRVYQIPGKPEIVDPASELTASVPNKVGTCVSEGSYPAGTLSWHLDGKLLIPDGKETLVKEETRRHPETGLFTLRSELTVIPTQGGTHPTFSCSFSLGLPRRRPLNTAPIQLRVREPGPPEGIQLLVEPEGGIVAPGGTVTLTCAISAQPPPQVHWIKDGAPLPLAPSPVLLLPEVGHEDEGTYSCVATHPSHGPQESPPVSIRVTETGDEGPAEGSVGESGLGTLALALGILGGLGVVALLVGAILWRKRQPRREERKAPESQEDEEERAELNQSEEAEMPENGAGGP

Key:
[1] = biological target: T1, Flag-tagged full-length SLP76 (UniProt Q13094); test: co-IP; HEK293 cotransfected with HA-RAGE and Flag-SLP76; treated with different doses of AGEs; 500 µg lysate with anti-FLAG M2 beads overnight at 4 °C; blot for HA (reverse immunoprecipitation)
T1 sequence: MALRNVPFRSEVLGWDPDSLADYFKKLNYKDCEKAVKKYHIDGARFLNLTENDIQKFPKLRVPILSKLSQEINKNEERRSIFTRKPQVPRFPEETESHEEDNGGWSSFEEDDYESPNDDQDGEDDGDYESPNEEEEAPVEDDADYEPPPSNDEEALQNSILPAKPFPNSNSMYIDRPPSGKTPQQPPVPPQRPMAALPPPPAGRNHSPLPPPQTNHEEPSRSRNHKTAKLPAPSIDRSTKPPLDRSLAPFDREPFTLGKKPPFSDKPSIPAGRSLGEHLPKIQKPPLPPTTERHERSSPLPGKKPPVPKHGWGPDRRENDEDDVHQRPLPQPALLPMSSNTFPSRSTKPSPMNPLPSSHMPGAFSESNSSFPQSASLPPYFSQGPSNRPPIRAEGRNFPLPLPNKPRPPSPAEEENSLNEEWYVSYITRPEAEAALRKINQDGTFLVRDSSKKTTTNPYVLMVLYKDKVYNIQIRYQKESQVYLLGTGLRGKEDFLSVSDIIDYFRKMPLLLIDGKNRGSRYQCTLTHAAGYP

[2] = biological target: HA-tagged full-length RAGE (UniProt Q15109); test: co-IP; HEK293 cotransfected with HA-RAGE (or mutants) and Flag-SLP76 (or mutants); treated with AGEs at different doses and times (100 μg/ml, 15 min in the mapping) or untreated; 500 µg lysate with anti-HA affinity gel overnight at 4 °C; blot for Flag
[3] = biological target: ECFP-tagged RAGE (UniProt Q15109); test: FRET or BRET; live HEK293 cells cotransfected with pECFP-RAGE and pEYFP-SLP76 or pEYFP-SLP76(ΔSAM), 36 h after transfection; sensitised emission, Net FRET
[4] = biological target: endogenous RAGE of RAW264.7 cells (mouse (endogenous in RAW264.7)) (UniProt Q62151); test: co-IP; endogenous proteins of RAW264.7 cells, AGEs (100 μg/ml) for 15 min or untreated; 500 µg lysate with 1 µg anti-RAGE antibody and protein G-Sepharose overnight at 4 °C; blot for SLP76

Molecule: HA-tagged full-length RAGE (from UniProt Q15109 23-404) (receptor)
- binding [1]: binds

B1: Flag-tagged SLP76 Y113A (protein, UniProt Q13094 1-533)
chain: MALRNVPFRSEVLGWDPDSLADYFKKLNYKDCEKAVKKYHIDGARFLNLTENDIQKFPKLRVPILSKLSQEINKNEERRSIFTRKPQVPRFPEETESHEEDNGGWSSFEEDDAESPNDDQDGEDDGDYESPNEEEEAPVEDDADYEPPPSNDEEALQNSILPAKPFPNSNSMYIDRPPSGKTPQQPPVPPQRPMAALPPPPAGRNHSPLPPPQTNHEEPSRSRNHKTAKLPAPSIDRSTKPPLDRSLAPFDREPFTLGKKPPFSDKPSIPAGRSLGEHLPKIQKPPLPPTTERHERSSPLPGKKPPVPKHGWGPDRRENDEDDVHQRPLPQPALLPMSSNTFPSRSTKPSPMNPLPSSHMPGAFSESNSSFPQSASLPPYFSQGPSNRPPIRAEGRNFPLPLPNKPRPPSPAEEENSLNEEWYVSYITRPEAEAALRKINQDGTFLVRDSSKKTTTNPYVLMVLYKDKVYNIQIRYQKESQVYLLGTGLRGKEDFLSVSDIIDYFRKMPLLLIDGKNRGSRYQCTLTHAAGYP
- binding [2]: binds

B2: EYFP-tagged SLP76 (protein, UniProt Q13094 1-533)
chain: MALRNVPFRSEVLGWDPDSLADYFKKLNYKDCEKAVKKYHIDGARFLNLTENDIQKFPKLRVPILSKLSQEINKNEERRSIFTRKPQVPRFPEETESHEEDNGGWSSFEEDDYESPNDDQDGEDDGDYESPNEEEEAPVEDDADYEPPPSNDEEALQNSILPAKPFPNSNSMYIDRPPSGKTPQQPPVPPQRPMAALPPPPAGRNHSPLPPPQTNHEEPSRSRNHKTAKLPAPSIDRSTKPPLDRSLAPFDREPFTLGKKPPFSDKPSIPAGRSLGEHLPKIQKPPLPPTTERHERSSPLPGKKPPVPKHGWGPDRRENDEDDVHQRPLPQPALLPMSSNTFPSRSTKPSPMNPLPSSHMPGAFSESNSSFPQSASLPPYFSQGPSNRPPIRAEGRNFPLPLPNKPRPPSPAEEENSLNEEWYVSYITRPEAEAALRKINQDGTFLVRDSSKKTTTNPYVLMVLYKDKVYNIQIRYQKESQVYLLGTGLRGKEDFLSVSDIIDYFRKMPLLLIDGKNRGSRYQCTLTHAAGYP
- binding [3]: binds

B3: Flag-tagged full-length SLP76 (protein, UniProt Q13094 1-533)
chain: MALRNVPFRSEVLGWDPDSLADYFKKLNYKDCEKAVKKYHIDGARFLNLTENDIQKFPKLRVPILSKLSQEINKNEERRSIFTRKPQVPRFPEETESHEEDNGGWSSFEEDDYESPNDDQDGEDDGDYESPNEEEEAPVEDDADYEPPPSNDEEALQNSILPAKPFPNSNSMYIDRPPSGKTPQQPPVPPQRPMAALPPPPAGRNHSPLPPPQTNHEEPSRSRNHKTAKLPAPSIDRSTKPPLDRSLAPFDREPFTLGKKPPFSDKPSIPAGRSLGEHLPKIQKPPLPPTTERHERSSPLPGKKPPVPKHGWGPDRRENDEDDVHQRPLPQPALLPMSSNTFPSRSTKPSPMNPLPSSHMPGAFSESNSSFPQSASLPPYFSQGPSNRPPIRAEGRNFPLPLPNKPRPPSPAEEENSLNEEWYVSYITRPEAEAALRKINQDGTFLVRDSSKKTTTNPYVLMVLYKDKVYNIQIRYQKESQVYLLGTGLRGKEDFLSVSDIIDYFRKMPLLLIDGKNRGSRYQCTLTHAAGYP
- binding [2]: binds

B4: endogenous SLP76 of RAW264.7 cells (protein, UniProt Q60787 1-533)
chain: MALKNVPFRSEVLAWNSDNLADYFRKLNYRDCEKAVKKYHIDGARFLNLTENDIQKFPKLRMPLLSKLSQDINKNEERRSIFTRKPQIPRFLEETESHEEDDGGWSSFEDDYESPNDDDPDGEDDGDYESPNEEEQALVDDAADYEPPPSNNEEALQSSILPPNSFHNTNSMYIDRPPTGKVSQQPPVPPLRPKPALPPLPTGRNHSPLSPPHPNHEEPSRSGNNKTAKLPAPSIDRSTKPPLDRSLAPLDREPFILGKKPPFSDKPSAPLGREHLPKIQKPPLPPAMDRHERNERLGPVTTRKPPVPRHGRGPDRRENDEDDVHQRPLPQPSLPSMSSNTFPSRSVQPSSKNTFPLAHMPGAFSESNIGFQQSASLPPYFSQGPGNRPPLRSEGRNLPLPVPNRPQPPSPGEEETPLDEEWYVSYITRPEAEAALRKINQDGTFLVRDSSKKTANNPYVLMVLYKDKVYNIQIRYQEESQVYLLGTGLRGKEDFLSVSDIIDYFRKMPLLLIDGKNRGSRYQCTLTHAAGCL
- binding [4]: binds
